Reference: patent publication US20220088193A1 (AGONOX, published 2022)
Substitutions are numbered along the chain they refer to. These are yes or no findings as the source states them, for the method shown. Some binding calls cover weakened binding; strength is not graded here.

Amino acid sequences for entries named in this document (tags omitted). A change or cut given only in a name is not applied to a line headed by its entry.
UniProt P08174: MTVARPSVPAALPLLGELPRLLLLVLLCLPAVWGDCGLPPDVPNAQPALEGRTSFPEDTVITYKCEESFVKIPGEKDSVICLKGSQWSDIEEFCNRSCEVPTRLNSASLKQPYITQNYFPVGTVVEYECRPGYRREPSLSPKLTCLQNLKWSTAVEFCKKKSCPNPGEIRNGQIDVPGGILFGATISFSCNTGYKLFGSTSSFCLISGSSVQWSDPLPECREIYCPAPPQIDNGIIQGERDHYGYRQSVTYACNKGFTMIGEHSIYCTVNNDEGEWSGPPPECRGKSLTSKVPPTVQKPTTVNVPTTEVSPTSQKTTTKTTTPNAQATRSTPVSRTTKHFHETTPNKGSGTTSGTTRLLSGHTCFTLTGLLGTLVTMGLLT

T1: mouse CD55 (mouse, UniProt Q61475 35-362, limits assumed)
T1 sequence (looked up): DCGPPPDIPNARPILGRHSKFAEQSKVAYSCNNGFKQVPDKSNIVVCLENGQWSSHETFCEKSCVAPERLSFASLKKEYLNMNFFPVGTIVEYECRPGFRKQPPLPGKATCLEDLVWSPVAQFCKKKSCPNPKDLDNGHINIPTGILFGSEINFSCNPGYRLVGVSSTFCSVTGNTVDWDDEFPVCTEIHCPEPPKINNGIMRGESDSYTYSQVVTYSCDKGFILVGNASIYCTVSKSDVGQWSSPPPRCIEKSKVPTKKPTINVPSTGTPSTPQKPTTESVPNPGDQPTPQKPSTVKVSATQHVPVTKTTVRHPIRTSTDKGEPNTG

B1: P5-1 (antibody, V domains shown)
VH: EVQLVESGGGLVQPGGSLRLSCAASGFTFSSYYIHWVRQAPGKGLEWVAAISSSSGSTYYADSVKGRFTISADTSKNTAYLQMNSLRAEDTAVYYCARERYFYGDFVFDYWGQGTLVTVSS
VL: DIQMTQSPSSLSASVGDRVTITCRASQSVSSAVAWYQQKPGKAPKLLIYSASSLYSGVPSRFSGSRSGTDFTLTISSLQPEDFATYYCQQYYSSPLTFGQGTKVEIKR
B2: P5-2-2A (antibody, V domains shown)
VH: B1 VH with R100A, Y101R, Y103H, V107I, F108L
VL: B1 VL with S93I, S94T
B3: P5-4 (antibody, V domains shown)
VH: B1 VH with R100D, F102Y, Y103W
VL: B1 VL
B4: P5-1J (antibody, V domains shown)
VH: B1 VH with S31H, Y32H, S53T, S54G, S55G, S57T, Y103N, V107I, F108Y
VL: B1 VL with S94T
notes: also called biotinylated P5-1J; unlabeled P5-1J

Target: T1, mouse CD55
Assay: screening of human antibody libraries

binding | Binder
binds | B1
binds | B2
binds | B3

Target: T1, mouse CD55
Assay: library screen, species specificity summary

binding | Binder
binds | B1
binds | B2
binds | B3
binds | B4

Target: Plate-bound CD55 (Homo sapiens (Human)) (UniProt P08174)
Assay: competition ELISA; unlabeled antibody pre-bound to plate-bound CD55

binding | Binder
binds | B2
binds | B3
